Some of the results follow.
Key:
Assay in all cases: log2 fold change, soluble protein after heating vs DMSO (PISA); higher = thermal stabilisation; K562 lysate, 10 uM; active = over 0.2 and 3.5 SD of the protein, either way, in both replicates (recomputed)
[1] = compound: Cc1cn(-c2cc(NC(=O)c3ccc(C)c(Nc4nccc(-c5cccnc5)n4)c3)cc(C(F)(F)F)c2)cn1 [nilotinib]
How it was run: (§1)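 Log-two fold change in thermal stability relative to solvent controls is reported from duplicates. For each sample, crude K562 extract from dounce-homogenised pellets in PBS pH 7.4 with 1 mM MgCl2, at 1 mg/mL protein, was treated with 10 μM compound for 30 min. Aliquots heated for 3 min across 48°C-58°C were pooled, brought to 0.5% NP-40 at 4°C and cleared at 21,000xg for 90 min. The supernatant was quantified by TMTpro 16plex LC-MS/MS with channel sums equalised.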

Amino acid sequences for entries named in this document (tags omitted). A change or cut given only in a name is not applied to a line headed by its entry.
UniProt Q6YBV0: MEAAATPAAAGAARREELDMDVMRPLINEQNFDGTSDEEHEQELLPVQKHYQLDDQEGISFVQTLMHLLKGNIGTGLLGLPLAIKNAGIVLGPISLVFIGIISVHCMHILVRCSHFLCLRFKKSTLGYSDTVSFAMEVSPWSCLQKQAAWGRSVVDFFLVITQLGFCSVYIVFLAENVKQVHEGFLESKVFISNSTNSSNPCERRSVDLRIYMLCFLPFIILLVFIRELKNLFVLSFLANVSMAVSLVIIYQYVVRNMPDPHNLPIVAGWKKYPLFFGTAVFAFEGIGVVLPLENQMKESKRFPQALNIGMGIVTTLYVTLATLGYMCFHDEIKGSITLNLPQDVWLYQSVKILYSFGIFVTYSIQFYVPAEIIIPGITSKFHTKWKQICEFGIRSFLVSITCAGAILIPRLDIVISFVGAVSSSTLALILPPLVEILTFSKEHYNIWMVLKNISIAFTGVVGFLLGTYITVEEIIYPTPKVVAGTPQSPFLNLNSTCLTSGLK
UniProt P53794: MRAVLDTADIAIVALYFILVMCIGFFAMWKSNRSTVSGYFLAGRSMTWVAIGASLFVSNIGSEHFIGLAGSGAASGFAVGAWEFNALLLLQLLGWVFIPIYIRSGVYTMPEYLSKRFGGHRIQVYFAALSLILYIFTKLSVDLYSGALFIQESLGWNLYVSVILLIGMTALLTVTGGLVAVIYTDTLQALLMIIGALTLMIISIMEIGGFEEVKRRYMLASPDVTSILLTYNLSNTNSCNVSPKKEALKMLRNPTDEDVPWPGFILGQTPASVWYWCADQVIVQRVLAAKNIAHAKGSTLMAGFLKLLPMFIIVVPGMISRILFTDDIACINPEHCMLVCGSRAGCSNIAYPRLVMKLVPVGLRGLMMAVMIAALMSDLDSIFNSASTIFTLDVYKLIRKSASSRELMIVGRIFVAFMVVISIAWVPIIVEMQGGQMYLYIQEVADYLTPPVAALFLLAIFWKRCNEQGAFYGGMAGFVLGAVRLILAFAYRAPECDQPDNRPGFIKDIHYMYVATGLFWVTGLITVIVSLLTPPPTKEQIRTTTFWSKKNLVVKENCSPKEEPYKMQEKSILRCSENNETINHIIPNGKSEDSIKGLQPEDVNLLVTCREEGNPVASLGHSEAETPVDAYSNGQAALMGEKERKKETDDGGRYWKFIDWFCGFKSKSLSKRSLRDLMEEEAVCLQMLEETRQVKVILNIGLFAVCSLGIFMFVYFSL
UniProt Q9H0C2: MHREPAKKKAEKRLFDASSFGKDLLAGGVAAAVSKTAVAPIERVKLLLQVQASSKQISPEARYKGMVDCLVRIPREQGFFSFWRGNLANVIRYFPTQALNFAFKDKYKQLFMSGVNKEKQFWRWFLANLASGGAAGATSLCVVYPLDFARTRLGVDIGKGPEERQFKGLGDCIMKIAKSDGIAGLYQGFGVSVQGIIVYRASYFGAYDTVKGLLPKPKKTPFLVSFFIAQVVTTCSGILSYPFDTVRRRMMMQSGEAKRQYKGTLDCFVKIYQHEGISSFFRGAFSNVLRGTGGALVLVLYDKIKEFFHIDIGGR
UniProt P04920: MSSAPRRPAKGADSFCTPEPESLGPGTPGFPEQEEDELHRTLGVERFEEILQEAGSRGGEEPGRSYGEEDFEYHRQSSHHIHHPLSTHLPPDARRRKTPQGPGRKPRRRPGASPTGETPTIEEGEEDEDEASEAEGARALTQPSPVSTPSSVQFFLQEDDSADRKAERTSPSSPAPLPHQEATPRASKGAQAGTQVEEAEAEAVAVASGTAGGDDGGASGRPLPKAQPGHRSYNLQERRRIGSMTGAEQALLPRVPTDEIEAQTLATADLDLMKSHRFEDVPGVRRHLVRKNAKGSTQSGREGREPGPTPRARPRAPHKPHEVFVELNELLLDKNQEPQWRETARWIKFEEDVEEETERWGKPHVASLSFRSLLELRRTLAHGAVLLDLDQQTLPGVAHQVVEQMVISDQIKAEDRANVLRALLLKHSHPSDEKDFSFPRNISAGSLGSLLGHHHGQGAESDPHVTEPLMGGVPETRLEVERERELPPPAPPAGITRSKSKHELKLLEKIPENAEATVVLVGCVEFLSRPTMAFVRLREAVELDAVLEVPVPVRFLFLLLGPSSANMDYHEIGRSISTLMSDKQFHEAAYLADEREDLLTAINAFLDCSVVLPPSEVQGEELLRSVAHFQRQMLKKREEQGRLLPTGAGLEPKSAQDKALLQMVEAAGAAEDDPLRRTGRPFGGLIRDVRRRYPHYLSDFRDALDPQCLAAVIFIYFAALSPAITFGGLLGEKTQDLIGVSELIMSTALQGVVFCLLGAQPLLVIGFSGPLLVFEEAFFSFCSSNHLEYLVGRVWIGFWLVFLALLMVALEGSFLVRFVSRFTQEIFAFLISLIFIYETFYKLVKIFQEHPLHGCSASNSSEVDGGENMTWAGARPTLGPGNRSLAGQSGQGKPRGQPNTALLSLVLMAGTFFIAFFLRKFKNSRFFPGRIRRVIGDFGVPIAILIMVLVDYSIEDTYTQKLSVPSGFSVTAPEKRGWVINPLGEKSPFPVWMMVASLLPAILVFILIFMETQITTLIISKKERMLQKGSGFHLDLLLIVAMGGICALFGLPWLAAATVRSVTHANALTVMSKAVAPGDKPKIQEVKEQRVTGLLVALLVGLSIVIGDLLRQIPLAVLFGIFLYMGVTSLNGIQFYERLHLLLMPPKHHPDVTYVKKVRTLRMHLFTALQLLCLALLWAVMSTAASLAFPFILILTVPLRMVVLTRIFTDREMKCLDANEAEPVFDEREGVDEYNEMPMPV
UniProt Q15599: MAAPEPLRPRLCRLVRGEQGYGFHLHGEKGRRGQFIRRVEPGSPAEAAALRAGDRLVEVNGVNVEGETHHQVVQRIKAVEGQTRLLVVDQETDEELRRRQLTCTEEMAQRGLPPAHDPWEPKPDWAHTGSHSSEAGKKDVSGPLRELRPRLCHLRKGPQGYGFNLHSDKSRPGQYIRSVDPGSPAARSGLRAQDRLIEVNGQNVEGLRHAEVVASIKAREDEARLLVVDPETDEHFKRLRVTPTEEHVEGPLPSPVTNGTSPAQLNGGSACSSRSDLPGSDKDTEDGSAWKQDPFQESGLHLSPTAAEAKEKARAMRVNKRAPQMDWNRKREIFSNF
UniProt Q15796, whole entry, looked up: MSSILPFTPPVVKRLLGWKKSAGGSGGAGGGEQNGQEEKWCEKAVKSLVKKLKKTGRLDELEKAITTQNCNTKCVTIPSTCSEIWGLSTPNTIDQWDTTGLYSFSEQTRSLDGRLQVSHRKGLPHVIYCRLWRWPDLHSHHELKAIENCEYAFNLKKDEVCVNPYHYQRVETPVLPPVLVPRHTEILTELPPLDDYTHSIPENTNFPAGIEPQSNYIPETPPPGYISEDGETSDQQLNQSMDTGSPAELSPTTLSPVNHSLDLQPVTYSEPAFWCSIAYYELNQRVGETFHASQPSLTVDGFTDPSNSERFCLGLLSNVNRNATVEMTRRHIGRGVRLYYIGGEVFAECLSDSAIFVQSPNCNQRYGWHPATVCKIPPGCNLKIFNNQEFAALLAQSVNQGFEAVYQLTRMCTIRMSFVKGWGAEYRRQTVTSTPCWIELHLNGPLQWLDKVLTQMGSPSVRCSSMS
UniProt Q8NBI5: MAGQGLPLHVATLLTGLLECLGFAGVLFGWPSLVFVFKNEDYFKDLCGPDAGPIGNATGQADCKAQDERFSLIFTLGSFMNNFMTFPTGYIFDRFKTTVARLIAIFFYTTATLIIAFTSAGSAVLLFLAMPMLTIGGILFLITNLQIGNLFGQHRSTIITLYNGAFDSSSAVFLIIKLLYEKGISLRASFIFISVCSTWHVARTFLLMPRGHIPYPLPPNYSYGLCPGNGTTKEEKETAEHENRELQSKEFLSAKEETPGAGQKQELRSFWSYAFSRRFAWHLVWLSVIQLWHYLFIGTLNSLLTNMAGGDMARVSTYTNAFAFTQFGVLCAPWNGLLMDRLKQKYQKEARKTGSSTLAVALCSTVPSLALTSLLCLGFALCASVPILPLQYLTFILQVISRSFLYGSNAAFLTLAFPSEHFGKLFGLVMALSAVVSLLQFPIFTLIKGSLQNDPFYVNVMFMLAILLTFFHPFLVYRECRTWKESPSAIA
UniProt O15431: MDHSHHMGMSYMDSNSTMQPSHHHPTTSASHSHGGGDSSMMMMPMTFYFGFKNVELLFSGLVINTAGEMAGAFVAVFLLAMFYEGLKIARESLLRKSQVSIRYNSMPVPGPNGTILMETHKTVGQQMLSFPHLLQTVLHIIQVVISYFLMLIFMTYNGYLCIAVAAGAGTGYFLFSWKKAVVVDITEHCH
UniProt O75387: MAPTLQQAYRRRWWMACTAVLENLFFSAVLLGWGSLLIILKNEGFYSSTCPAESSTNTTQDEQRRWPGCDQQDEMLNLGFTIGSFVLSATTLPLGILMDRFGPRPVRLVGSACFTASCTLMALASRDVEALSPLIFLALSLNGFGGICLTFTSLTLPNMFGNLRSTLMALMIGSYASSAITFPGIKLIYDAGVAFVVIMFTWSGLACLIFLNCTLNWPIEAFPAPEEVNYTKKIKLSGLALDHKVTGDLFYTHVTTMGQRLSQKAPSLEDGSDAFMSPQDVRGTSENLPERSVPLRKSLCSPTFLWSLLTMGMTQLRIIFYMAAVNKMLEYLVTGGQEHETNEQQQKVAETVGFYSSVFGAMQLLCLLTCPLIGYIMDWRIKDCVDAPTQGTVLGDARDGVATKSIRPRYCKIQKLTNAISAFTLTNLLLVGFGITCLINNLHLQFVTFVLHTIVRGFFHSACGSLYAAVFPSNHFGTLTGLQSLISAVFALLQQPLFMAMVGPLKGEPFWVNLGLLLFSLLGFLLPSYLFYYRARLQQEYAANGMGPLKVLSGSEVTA
UniProt Q8NEW0: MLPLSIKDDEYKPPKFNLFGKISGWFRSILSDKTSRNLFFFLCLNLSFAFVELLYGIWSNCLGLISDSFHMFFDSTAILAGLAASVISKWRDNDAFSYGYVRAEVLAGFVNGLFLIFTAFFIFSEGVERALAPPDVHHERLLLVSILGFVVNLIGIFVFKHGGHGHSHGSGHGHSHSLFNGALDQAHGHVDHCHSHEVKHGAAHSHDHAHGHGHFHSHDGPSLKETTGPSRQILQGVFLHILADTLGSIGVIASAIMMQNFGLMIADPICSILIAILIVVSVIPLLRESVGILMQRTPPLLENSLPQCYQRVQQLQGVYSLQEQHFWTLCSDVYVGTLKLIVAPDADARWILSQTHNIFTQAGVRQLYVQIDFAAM
UniProt Q96QD8: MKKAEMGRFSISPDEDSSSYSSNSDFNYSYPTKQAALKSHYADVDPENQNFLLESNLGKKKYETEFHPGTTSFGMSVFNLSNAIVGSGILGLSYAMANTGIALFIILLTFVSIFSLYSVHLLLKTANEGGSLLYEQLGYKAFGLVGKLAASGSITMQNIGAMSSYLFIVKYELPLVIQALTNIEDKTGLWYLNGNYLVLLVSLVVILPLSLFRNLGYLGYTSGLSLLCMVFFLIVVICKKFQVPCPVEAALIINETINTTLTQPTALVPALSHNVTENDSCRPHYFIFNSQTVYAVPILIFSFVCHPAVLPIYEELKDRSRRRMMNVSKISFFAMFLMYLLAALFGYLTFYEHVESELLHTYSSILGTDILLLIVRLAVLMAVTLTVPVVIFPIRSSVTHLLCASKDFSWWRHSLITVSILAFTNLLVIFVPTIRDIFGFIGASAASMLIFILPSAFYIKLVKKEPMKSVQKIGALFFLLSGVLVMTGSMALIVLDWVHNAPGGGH
UniProt P11166: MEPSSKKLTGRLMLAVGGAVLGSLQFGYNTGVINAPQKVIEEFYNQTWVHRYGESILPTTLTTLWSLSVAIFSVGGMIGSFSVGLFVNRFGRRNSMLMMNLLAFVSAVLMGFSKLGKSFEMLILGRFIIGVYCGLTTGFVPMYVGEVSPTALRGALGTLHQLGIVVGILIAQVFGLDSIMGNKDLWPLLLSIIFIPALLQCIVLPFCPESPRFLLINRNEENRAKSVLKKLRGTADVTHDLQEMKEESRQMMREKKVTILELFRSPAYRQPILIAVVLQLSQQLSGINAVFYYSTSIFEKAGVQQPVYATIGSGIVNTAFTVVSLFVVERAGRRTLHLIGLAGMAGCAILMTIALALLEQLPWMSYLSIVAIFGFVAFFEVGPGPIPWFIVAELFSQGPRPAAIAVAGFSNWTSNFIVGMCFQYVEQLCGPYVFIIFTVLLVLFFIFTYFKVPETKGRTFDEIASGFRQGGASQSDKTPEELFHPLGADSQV
UniProt Q9NYZ2: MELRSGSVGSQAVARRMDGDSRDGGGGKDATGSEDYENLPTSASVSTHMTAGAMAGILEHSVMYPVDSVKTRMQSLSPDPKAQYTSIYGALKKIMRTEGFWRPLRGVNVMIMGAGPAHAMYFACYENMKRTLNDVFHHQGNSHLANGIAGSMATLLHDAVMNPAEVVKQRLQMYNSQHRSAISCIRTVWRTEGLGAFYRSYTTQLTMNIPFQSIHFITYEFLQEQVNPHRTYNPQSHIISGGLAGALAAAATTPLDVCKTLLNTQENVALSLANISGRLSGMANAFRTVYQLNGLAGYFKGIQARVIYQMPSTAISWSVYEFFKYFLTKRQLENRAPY

[2] = compound: Cc1nc(Nc2n[nH]c3c2CN(C(=O)N[C@H](CN(C)C)c2ccccc2)C3(C)C)c2sccc2n1
How it was run: as §1

[3] = compound: Cc1nc(Nc2ncc(C(=O)Nc3c(C)cccc3Cl)s2)cc(N2CCN(CCO)CC2)n1 [dasatinib]
How it was run: as §1

[4] = compound: Cc1ncc(-c2ccnc(Nc3ccc(S(C)(=O)=O)cc3)n2)n1C(C)C
How it was run: as §1

[5] = compound: Cn1cc(-c2ccc3c(c2)CCN3C(=O)Cc2cccc(C(F)(F)F)c2)c2c(N)ncnc21
How it was run: as §1

[6] = compound: Cn1cc(CNCC2CCN(c3ncc(C(=O)NO)cn3)CC2)c2ccccc21 [quisinostat]
How it was run: as §1

[7] = compound: Cn1cncc1[C@@](N)(c1ccc(Cl)cc1)c1ccc2c(c1)c(-c1cccc(Cl)c1)cc(=O)n2C [tipifarnib]
How it was run: as §1

[8] = compound: NC(=O)Nc1cc(-c2cccc(F)c2)sc1C(=O)N[C@H]1CCCNC1
How it was run: as §1

[9] = compound: NC(=O)c1cnc(N[C@@H]2CCCC[C@@H]2N)nc1Nc1cccc(-n2nccn2)c1
How it was run: as §1

[10] = compound: NC1(c2ccc(-c3nc4ccn5c(=O)[nH]nc5c4cc3-c3ccccc3)cc2)CCC1
How it was run: as §1

Measured: log2 fold change

SLC7A1 (UniProt P30825)
inactive: [1] -0.012 | [2] 0.011 | [3] 0.026 | [4] -0.04 | [5] 0.06 | [6] 0.027 | [7] -0.018 | [8] -0.049 | [9] -0.007 | [10] 0.01

SLC25A1 (UniProt P53007)
inactive: [1] 0.047 | [2] 0.037 | [3] 0.022 | [4] 0.016 | [5] -0.05 | [6] 0.039 | [7] 0.007 | [8] 0.008 | [9] -0.06 | [10] 0.019

SMARCA2 (UniProt P51531)
inactive: [1] 0.005 | [2] -0.05 | [3] -0.034 | [4] 0.047 | [5] 0.037 | [6] -0.004 | [7] -0.048 | [8] 0.018 | [9] 0.023 | [10] 0.02

SLC39A11 (UniProt Q8N1S5)
inactive: [1] 0.072 | [2] -0.039 | [3] -0.092 | [4] -0.008 | [5] -0.123 | [6] 0.127 | [7] 0.068 | [8] 0.045 | [9] 0.026 | [10] 0.099

SLC36A4 (UniProt Q6YBV0)
inactive: [1] 0.138 | [2] 0.191 | [3] -0.174 | [4] 0 | [5] -0.09 | [6] 0.01 | [7] -0.084 | [8] -0.009 | [9] -0.014 | [10] 0.055

SLMAP isoform 3 (UniProt Q14BN4)
inactive: [1] -0.025 | [2] -0.053 | [3] -0.023 | [4] -0.014 | [5] 0.056 | [6] -0.031 | [7] 0.036 | [8] 0.027 | [9] 0.02 | [10] -0.003

SLC5A3 (UniProt P53794)
inactive: [1] 0.008 | [2] -0.004 | [3] 0.02 | [4] -0.028 | [5] 0.006 | [6] -0.096 | [7] 0.008 | [8] 0.028 | [9] -0.03 | [10] -0.007

SLC29A1 isoform 2 (UniProt Q99808)
inactive: [1] 0.001 | [2] 0.091 | [3] 0.016 | [4] 0.055 | [5] -0.025 | [6] -0.136 | [7] -0.024 | [8] 0.02 | [9] -0.026 | [10] 0.035

SLC25A31 (UniProt Q9H0C2)
inactive: [1] 0.014 | [2] 0.012 | [3] -0.003 | [4] -0.009 | [5] -0.007 | [6] -0.003 | [7] 0.009 | [8] -0.031 | [9] 0.027 | [10] -0.02

SLC4A2 (UniProt P04920)
inactive: [1] 0.025 | [2] 0.087 | [3] -0.082 | [4] -0.003 | [5] 0.029 | [6] 0.003 | [7] -0.052 | [8] -0.015 | [9] -0.02 | [10] 0.008

SLC9A3R2 (UniProt Q15599)
inactive: [1] -0.001 | [2] -0.002 | [3] 0.027 | [4] 0.014 | [5] 0.023 | [6] -0.04 | [7] -0.017 | [8] 0.021 | [9] -0.002 | [10] -0.005

SMAD2 (UniProt Q15796)
inactive: [1] 0.025 | [2] 0.116 | [3] 0.006 | [4] -0.059 | [5] 0.011 | [6] -0.012 | [7] 0.055 | [8] 0.038 | [9] -0.015 | [10] 0.042

SMAD4 (UniProt Q13485)
inactive: [1] 0.032 | [2] -0.011 | [3] -0.014 | [4] -0.021 | [5] -0.023 | [6] -0.028 | [7] 0.022 | [8] -0.009 | [9] 0.01 | [10] -0.025

SLC7A6OS (UniProt Q96CW6)
inactive: [1] 0.021 | [2] 0.088 | [3] 0.002 | [4] 0.127 | [5] -0.013 | [6] 0.013 | [7] 0.026 | [8] -0.031 | [9] -0.015 | [10] -0.112

SLC43A3 isoform 2 (UniProt Q8NBI5)
inactive: [1] 0.007 | [2] 0.033 | [3] 0.04 | [4] -0.041 | [5] -0.027 | [6] 0.013 | [7] -0.007 | [8] -0.002 | [9] -0.019 | [10] 0.046

SLC31A1 (UniProt O15431)
inactive: [1] -0.021 | [2] 0.02 | [3] 0.177 | [4] 0.052 | [5] -0.158 | [6] -0.007 | [7] -0.015 | [8] -0.011 | [9] -0.189 | [10] -0.047

SLC43A1 (UniProt O75387)
inactive: [1] -0.047 | [2] 0.043 | [3] -0.034 | [4] 0.06 | [5] 0.06 | [6] 0.053 | [7] 0.018 | [8] -0.027 | [9] -0.055 | [10] 0.036

SLC38A5 (UniProt Q8WUX1)
inactive: [1] -0.001 | [2] 0.02 | [3] -0.005 | [4] -0.012 | [5] -0.028 | [6] -0.082 | [7] -0.011 | [8] 0.014 | [9] -0.002 | [10] 0.005

SLC30A7 (UniProt Q8NEW0)
inactive: [1] 0.006 | [2] -0.071 | [3] -0.065 | [4] -0.055 | [5] -0.102 | [6] 0.108 | [7] 0.387 | [8] -0.183 | [9] 0.033

SLC38A2 (UniProt Q96QD8)
inactive: [1] -0.002 | [2] 0.018 | [3] 0.015 | [4] -0.005 | [5] -0.051 | [6] -0.051 | [7] -0.058 | [8] 0.045 | [9] -0.038 | [10] 0.01

SLC35A2 isoform 4 (UniProt P78381)
inactive: [1] -0.028 | [2] -0.015 | [3] 0.038 | [4] -0.035 | [5] 0 | [6] -0.097 | [7] 0.088 | [8] 0.03 | [9] -0.03 | [10] -0.021

SLC35B2 (UniProt Q8TB61)
inactive: [1] 0.011 | [2] 0.038 | [3] 0.032 | [4] -0.037 | [5] -0.005 | [6] 0.052 | [7] -0.085 | [8] -0.011 | [9] 0.013 | [10] 0

SLC5A6 (UniProt Q9Y289)
inactive: [1] -0.009 | [2] -0.031 | [3] 0.028 | [4] 0.013 | [5] -0.004 | [6] -0.004 | [7] 0.054 | [8] 0.023 | [9] -0.068 | [10] 0.012

SLC25A36 (UniProt Q96CQ1)
inactive: [1] 0.081 | [2] -0.007 | [3] 0.012 | [4] 0.04 | [5] 0.085 | [6] 0.045 | [7] -0.119 | [8] -0.08 | [9] 0.003 | [10] -0.031

SLC25A3 isoform 2 (UniProt Q00325)
inactive: [1] 0.024 | [2] -0.001 | [3] 0.004 | [4] 0.001 | [5] -0.023 | [6] -0.065 | [7] 0.013 | [8] 0.014 | [9] -0.023 | [10] 0.008

SLC7A2 isoform 3 (UniProt P52569)
inactive: [1] 0.063 | [2] -0.098 | [3] -0.009 | [4] 0.018 | [5] -0.032 | [6] -0.034 | [7] -0.044 | [8] 0.003 | [9] -0.029 | [10] 0.005

SLC2A1 (UniProt P11166)
inactive: [1] -0.008 | [2] 0.012 | [3] 0.006 | [4] -0.059 | [5] -0.006 | [6] 0.137 | [7] -0.015 | [8] 0.003 | [9] 0.023 | [10] 0.052

Random excerpt: 2 entries already listed
SMAD4 (UniProt Q13485)
inactive: [1] 0.032 | [2] -0.011 | [3] -0.014 | [4] -0.021 | [5] -0.023 | [6] -0.028 | [7] 0.022 | [8] -0.009 | [9] 0.01 | [10] -0.025

SLC35A2 isoform 4 (UniProt P78381)
inactive: [1] -0.028 | [2] -0.015 | [3] 0.038 | [4] -0.035 | [5] 0 | [6] -0.097 | [7] 0.088 | [8] 0.03 | [9] -0.03 | [10] -0.021

The list continues:

SLC25A15 (UniProt Q9Y619)
inactive: [1] 0.029 | [2] 0.041 | [3] 0.008 | [4] -0.003 | [5] 0.005 | [6] -0.064 | [7] 0.012 | [8] 0.015 | [9] -0.031 | [10] -0.003

SMAD3 (UniProt P84022)
inactive: [1] -0.002 | [2] 0.007 | [3] -0.038 | [4] 0 | [5] -0.078 | [6] -0.033 | [7] -0.035 | [8] -0.021 | [9] -0.009

SLC25A37 (UniProt Q9NYZ2)
inactive: [1] -0.056 | [2] 0.069 | [3] -0.002 | [4] 0.008 | [5] 0.015 | [6] -0.009 | [7] 0.013 | [8] 0.022 | [9] -0.008 | [10] 0.014

Reference: the supplement of paper PMC10849652
